Laboratory results reported in paper PMC10362728.
No constants are given. Whether binding was seen depends on the method and setting. Binding seen in cells or lysates may run through a third protein. Some entries that bind do so weakly or less than the wild type. Sequences can lack the tags named with a protein.

Biological target: T1, Flag-tagged retinoic acid-inducible gene I (RIG-I) (UniProt Q6Q899)
T1 sequence: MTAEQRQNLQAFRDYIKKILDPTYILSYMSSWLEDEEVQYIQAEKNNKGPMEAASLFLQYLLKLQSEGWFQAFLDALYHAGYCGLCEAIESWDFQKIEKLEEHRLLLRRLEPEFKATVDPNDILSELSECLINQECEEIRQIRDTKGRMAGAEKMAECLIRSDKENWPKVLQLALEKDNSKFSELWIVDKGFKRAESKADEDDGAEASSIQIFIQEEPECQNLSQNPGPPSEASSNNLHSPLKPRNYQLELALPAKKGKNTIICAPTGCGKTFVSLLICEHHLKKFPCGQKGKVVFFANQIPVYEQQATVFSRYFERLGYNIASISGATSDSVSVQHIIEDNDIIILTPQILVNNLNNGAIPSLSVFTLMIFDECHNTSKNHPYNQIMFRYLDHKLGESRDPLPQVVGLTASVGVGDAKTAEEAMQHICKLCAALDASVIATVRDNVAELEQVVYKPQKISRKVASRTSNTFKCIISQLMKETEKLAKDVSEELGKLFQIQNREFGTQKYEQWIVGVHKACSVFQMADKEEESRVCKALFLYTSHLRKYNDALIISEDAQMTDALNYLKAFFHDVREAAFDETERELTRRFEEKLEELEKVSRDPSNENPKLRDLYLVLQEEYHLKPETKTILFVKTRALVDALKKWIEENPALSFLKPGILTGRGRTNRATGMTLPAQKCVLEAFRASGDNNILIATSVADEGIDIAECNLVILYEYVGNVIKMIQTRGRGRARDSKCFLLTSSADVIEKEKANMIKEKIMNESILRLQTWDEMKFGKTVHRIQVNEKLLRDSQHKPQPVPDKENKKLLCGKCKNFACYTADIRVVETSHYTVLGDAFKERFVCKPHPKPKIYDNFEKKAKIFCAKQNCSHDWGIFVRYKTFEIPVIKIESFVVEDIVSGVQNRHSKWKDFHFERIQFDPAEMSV
Test: co-IP; HEK-293T cells co-transfected with pCAGGS-Flag-RIG-I and pCAGGS-Rnf19a, collected 48 h after transfection; lysate pre-cleared with IgG and protein A + G agarose, then incubated with DDDDK-Tag (anti-Flag) antibody and protein A + G agarose overnight at 4 °C; washed five times with PBS; immunoblot with anti-Flag and anti-Rnf19a antibodies

binding: binds
B1: ring finger protein 19A (Rnf19a) (enzyme, UniProt P50636 1-840)
chain: MQEQEISFIFKYNEGLCMNIDSDSILMSILDMSLHQQMGSDRDLQSSTSSVSLPSVKKAPKQRRISIGSLFRRKKDSKRKSRELNGGVDGIASIESIHSEMCADKNSIFSTNTSSDNGLTSISKQIGDFIECPLCLLRHSKDRFPDIMTCHHRSCVDCLRQYLRIEISESRVNISCPECTERFNPHDIRLILSDDVLMEKYEEFMLRRWLVADPDCRWCPAPDCGYAVIAFGCASCPKLTCGREGCGTEFCYHCKQIWHPNQTCDAARQERAQSLRLRTIRSSSISYSQESGAAADDIKPCPRCAAYIIKMNDGSCNHMTCAVCGCEFCWLCMKEISDLHYLSPSGCTFWGKKPWSRKKKILWQLGTLVGAPVGIALIAGIAIPAMIIGIPVYVGRKIHNRYEGKDVSKHKRNLAIAGGVTLSVIVSPVVAAVTVGIGVPIMLAYVYGVVPISLCRSGGCGVSAGNGKGVRIEFDDENDINVGGTNAAIDTTSVAEARHNPSIGEGSVGGLTGSLSASGSHMDRIGTIRDNLSETASTMALAGASITGSLSGSAMVNCFNRLEVQADVQKERCSLSGESGTVSLGTVSDNASTKAMAGSILNSYIPLDREGNSMEVQVDIESKPFKFRHNSGSSSVDDSGATRGHTGGASSGLPEGKSSATKWSKEATGGKKSKSGKLRKKGNMKINETREDMDAQLLEQQSTNSSEFEAPSLSDSMPSVADSHSSHFSEFSCSDLESMRTSCSHGSSDCHARFTAVNTLPEVENDRLENSPHQCSSALLSKAASCSDVPQPSHAADEHGTSRSGGKPMVDLCFGDALRETNNNHSHQTADLKVAVQTEI
